# Results as given in the supplement of paper PMC8728848.
# The list shows a part of the results.
# B1: TAL6-4LysM (Trichoderma atroviride) (protein)
# chain: AADSIPSISPTGIITPTPTQSGMVSNCNKFYDVHSNDGCSAIASSQHVDLSSLYKWNPAIKTDCSGLQASVYVCIGILTTSMSTTSKLPTTTSKPSTTSKPPTGITTPTPTQSGMVKNCNKFYDVHSGDGCSAIASSQKVNLSSFYLWNPAVKTDCSGLQASVFVCIGTLTTSMSTTTSKLPTTTSKPSTTSKPPTGIITPTPTQNGMVKNCNKFYDVHSGDGCSAIASSQKVNLSSFYLWNPAVKTDCSGLQASVFVCVGTATTTTAAGITTPTPTQSGMVSGCNKFYDVHAGDGCSAIASSQKIALSSLYKWNPAVKTDCSGLQASVYICIGVGNAAAARVTGALEQKLISEEDLNSAVDHHHHHH
# Key:
# Assay in all cases: glycan array binding signal (z-score within array); higher = stronger binding
# Conditions in all cases: glycan notation: IUPAC condensed, linker removed
# [1] = biological target: Neu5Ac(a2-3)Gal(b1-3)GalNAc
# Summary of the method: (§1)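 Arrays were curated from the Consortium for Functional Glycomics database, 3228 in total, and kept only where the protein sequence was available. Binding is expressed as a within-array Z-score. This score was averaged across arrays of the same protein sequence at different concentrations or buffers and across linkers, and negative values can be read as non-binding.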
# [2] = biological target: Neu5Ac(a2-3)Gal(b1-3)GalNAc(b1-3)Gal(a1-4)Gal(b1-4)Glc
# Summary of the method: as §1
# [3] = biological target: Neu5Ac(a2-3)Gal(b1-3)GalNAc(b1-4)[Neu5Ac(a2-3)]Gal(b1-4)Glc
# Summary of the method: as §1
# [4] = biological target: Neu5Ac(a2-3)Gal(b1-3)GalNAc(b1-4)[Neu5Ac(a2-8)Neu5Ac(a2-3)]Gal(b1-4)Glc
# Summary of the method: as §1
# [5] = biological target: Neu5Ac(a2-3)Gal(b1-3)GalNAc6S
# Summary of the method: as §1
# [6] = biological target: Neu5Ac(a2-3)Gal(b1-3)GlcNAc
# Summary of the method: as §1
# [7] = biological target: Neu5Ac(a2-3)Gal(b1-3)GlcNAc(b1-2)Man
# Summary of the method: as §1
# [8] = biological target: Neu5Ac(a2-3)Gal(b1-3)GlcNAc(b1-2)Man(a1-3)[GlcNAc(b1-4)][Neu5Ac(a2-3)Gal(b1-3)GlcNAc(b1-2)Man(a1-6)]Man(b1-4)GlcNAc(b1-4)GlcNAc
# Summary of the method: as §1
# [9] = biological target: Neu5Ac(a2-3)Gal(b1-3)GlcNAc(b1-2)Man(a1-3)[Neu5Ac(a2-3)Gal(b1-3)GlcNAc(b1-2)Man(a1-6)]Man(b1-4)GlcNAc(b1-4)GlcNAc
# Summary of the method: as §1
# [10] = biological target: Neu5Ac(a2-3)Gal(b1-3)GlcNAc(b1-3)Gal(b1-3)GlcNAc
# Summary of the method: as §1
# [11] = biological target: Neu5Ac(a2-3)Gal(b1-3)GlcNAc(b1-3)Gal(b1-4)GlcNAc
# Summary of the method: as §1
# [12] = biological target: Neu5Ac(a2-3)Gal(b1-3)GlcNAc(b1-3)GalNAc
# Summary of the method: as §1
# [13] = biological target: Neu5Ac(a2-3)Gal(b1-3)GlcNAc(b1-4)Gal(b1-4)Glc
# Summary of the method: as §1
# [14] = biological target: Neu5Ac(a2-3)Gal(b1-3)GlcNAc(b1-6)GalNAc
# Summary of the method: as §1
# [15] = biological target: Neu5Ac(a2-3)Gal(b1-3)GlcNAc6S
# Summary of the method: as §1
# [16] = biological target: Neu5Ac(a2-3)Gal(b1-3)[Fuc(a1-4)]GlcNAc
# Summary of the method: as §1
# [17] = biological target: Neu5Ac(a2-3)Gal(b1-3)[Fuc(a1-4)]GlcNAc(b1-3)Gal(b1-3)[Fuc(a1-4)]GlcNAc
# Summary of the method: as §1
# [18] = biological target: Neu5Ac(a2-3)Gal(b1-3)[Fuc(a1-4)]GlcNAc(b1-3)Gal(b1-4)[Fuc(a1-3)]GlcNAc
# Summary of the method: as §1
# [19] = biological target: Neu5Ac(a2-3)Gal(b1-3)[GlcNAc(b1-6)]GalNAc
# Summary of the method: as §1
# [20] = biological target: Neu5Ac(a2-3)Gal(b1-3)[Neu5Ac(a2-6)]GalNAc
# Summary of the method: as §1
# [21] = biological target: Neu5Ac(a2-3)Gal(b1-3)[Neu5Ac(a2-6)]GlcNAc(b1-3)[Fuc(a1-3)[Gal(b1-4)]GlcNAc(b1-6)]Gal(b1-4)Glc
# Summary of the method: as §1
# [22] = biological target: Neu5Ac(a2-3)Gal(b1-3)]Neu5Ac(a2-3)Gal(b1-4)]GlcNAc
# Summary of the method: as §1
# [23] = biological target: Neu5Ac(a2-3)Gal(b1-4)Glc
# Summary of the method: as §1
# [24] = biological target: Neu5Ac(a2-3)Gal(b1-4)GlcNAc
# Summary of the method: as §1
# [25] = biological target: Neu5Ac(a2-3)Gal(b1-4)GlcNAc(b1-2)Man
# Summary of the method: as §1
# [26] = biological target: Neu5Ac(a2-3)Gal(b1-4)GlcNAc(b1-2)Man(a1-3)[GlcNAc(b1-4)][Neu5Ac(a2-3)Gal(b1-4)GlcNAc(b1-2)Man(a1-6)]Man(b1-4)GlcNAc(b1-4)GlcNAc
# Summary of the method: as §1
# [27] = biological target: Neu5Ac(a2-3)Gal(b1-4)GlcNAc(b1-2)Man(a1-3)[Neu5Ac(a2-3)Gal(b1-4)GlcNAc(b1-2)Man(a1-6)]Man(b1-4)GlcNAc(b1-4)GlcNAc
# Summary of the method: as §1
# [28] = biological target: Neu5Ac(a2-3)Gal(b1-4)GlcNAc(b1-2)Man(a1-3)[Neu5Ac(a2-3)Gal(b1-4)GlcNAc(b1-2)Man(a1-6)]Man(b1-4)GlcNAc(b1-4)[Fuc(a1-6)]GlcNAc
# Summary of the method: as §1
# [29] = biological target: Neu5Ac(a2-3)Gal(b1-4)GlcNAc(b1-2)Man(a1-3)[Neu5Ac(a2-6)Gal(b1-4)GlcNAc(b1-2)Man(a1-6)]Man(b1-4)GlcNAc(b1-4)GlcNAc
# Summary of the method: as §1
# [30] = biological target: Neu5Ac(a2-3)Gal(b1-4)GlcNAc(b1-2)[Neu5Ac(a2-3)Gal(b1-4)GlcNAc(b1-4)]Man(a1-3)[GlcNAc(b1-4)][Neu5Ac(a2-3)Gal(b1-4)GlcNAc(b1-2)[Neu5Ac(a2-3)Gal(b1-4)GlcNAc(b1-6)]Man(a1-6)]Man(b1-4)GlcNAc(b1-4)GlcNAc
# Summary of the method: as §1
# [31] = biological target: Neu5Ac(a2-3)Gal(b1-4)GlcNAc(b1-2)[Neu5Ac(a2-3)Gal(b1-4)GlcNAc(b1-4)]Man(a1-3)[GlcNAc(b1-4)][Neu5Ac(a2-3)Gal(b1-4)GlcNAc(b1-4)Man(a1-6)]Man(b1-4)GlcNAc(b1-4)GlcNAc
# Summary of the method: as §1
# [32] = biological target: Neu5Ac(a2-3)Gal(b1-4)GlcNAc(b1-2)[Neu5Ac(a2-3)Gal(b1-4)GlcNAc(b1-6)]Man(a1-6)[Neu5Ac(a2-3)Gal(b1-4)GlcNAc(b1-2)Man(a1-3)]Man(b1-4)GlcNAc(b1-4)GlcNAc
# Summary of the method: as §1
# [33] = biological target: Neu5Ac(a2-3)Gal(b1-4)GlcNAc(b1-2)[Neu5Ac(a2-3)Gal(b1-4)GlcNAc(b1-6)]Man(a1-6)[Neu5Ac(a2-3)Gal(b1-4)GlcNAc(b1-2)Man(a1-3)][GlcNAc(b1-4)]Man(b1-4)GlcNAc(b1-4)GlcNAc
# Summary of the method: as §1
# [34] = biological target: Neu5Ac(a2-3)Gal(b1-4)GlcNAc(b1-3)Gal
# Summary of the method: as §1
# [35] = biological target: Neu5Ac(a2-3)Gal(b1-4)GlcNAc(b1-3)Gal(b1-3)GlcNAc
# Summary of the method: as §1
# [36] = biological target: Neu5Ac(a2-3)Gal(b1-4)GlcNAc(b1-3)Gal(b1-4)GlcNAc
# Summary of the method: as §1
# [37] = biological target: Neu5Ac(a2-3)Gal(b1-4)GlcNAc(b1-3)Gal(b1-4)GlcNAc(b1-2)Man(a1-3)[Neu5Ac(a2-3)Gal(b1-4)GlcNAc(b1-3)Gal(b1-4)GlcNAc(b1-2)Man(a1-6)]Man(b1-4)GlcNAc(b1-4)GlcNAc
# Summary of the method: as §1
binder,measurement,setting,value
B1,glycan array binding signal (z-score),[1],-0.87
same,glycan array binding signal (z-score),[2],1.55
same,glycan array binding signal (z-score),[3],0.854
same,glycan array binding signal (z-score),[4],0.392
same,glycan array binding signal (z-score),[5],0.743
same,glycan array binding signal (z-score),[6],0.416
same,glycan array binding signal (z-score),[7],-0.188
same,glycan array binding signal (z-score),[8],-0.323
same,glycan array binding signal (z-score),[9],0.679
same,glycan array binding signal (z-score),[10],-0.899
same,glycan array binding signal (z-score),[11],-0.568
same,glycan array binding signal (z-score),[12],0.526
same,glycan array binding signal (z-score),[13],-0.389
same,glycan array binding signal (z-score),[14],-0.944
same,glycan array binding signal (z-score),[15],-0.022
same,glycan array binding signal (z-score),[16],-1.09
same,glycan array binding signal (z-score),[17],1.41
same,glycan array binding signal (z-score),[18],1.65
same,glycan array binding signal (z-score),[19],-0.436
same,glycan array binding signal (z-score),[20],0.082
same,glycan array binding signal (z-score),[21],-1.22
same,glycan array binding signal (z-score),[22],0.719
same,glycan array binding signal (z-score),[23],1.22
same,glycan array binding signal (z-score),[24],-0.436
same,glycan array binding signal (z-score),[25],-0.663
same,glycan array binding signal (z-score),[26],-0.429
same,glycan array binding signal (z-score),[27],0.201
same,glycan array binding signal (z-score),[28],-0.509
same,glycan array binding signal (z-score),[29],-0.107
same,glycan array binding signal (z-score),[30],-1.17
same,glycan array binding signal (z-score),[31],0.34
same,glycan array binding signal (z-score),[32],0.741
same,glycan array binding signal (z-score),[33],-0.364
same,glycan array binding signal (z-score),[34],-1.25
same,glycan array binding signal (z-score),[35],-0.879
same,glycan array binding signal (z-score),[36],0.077
same,glycan array binding signal (z-score),[37],2.52

# Reformatted as tab-separated lines: entries from further up.
binder	measurement	setting	value
B1	glycan array binding signal (z-score)	[3]	0.854
same	glycan array binding signal (z-score)	[4]	0.392
